Data on 36 targets can be found in the supplement of paper PMC12819154, “High-throughput peptide-centric local stability assay extends protein–ligand identification to membrane proteins, tissues and bacteria” (Nature Structural & Molecular Biology, 2025).

By UniProt entry, the sequences of proteins in these tests, tags left out. Where a name states a change or a piece, a line headed by the entry shows the natural chain unless it says otherwise.
UniProt P78332: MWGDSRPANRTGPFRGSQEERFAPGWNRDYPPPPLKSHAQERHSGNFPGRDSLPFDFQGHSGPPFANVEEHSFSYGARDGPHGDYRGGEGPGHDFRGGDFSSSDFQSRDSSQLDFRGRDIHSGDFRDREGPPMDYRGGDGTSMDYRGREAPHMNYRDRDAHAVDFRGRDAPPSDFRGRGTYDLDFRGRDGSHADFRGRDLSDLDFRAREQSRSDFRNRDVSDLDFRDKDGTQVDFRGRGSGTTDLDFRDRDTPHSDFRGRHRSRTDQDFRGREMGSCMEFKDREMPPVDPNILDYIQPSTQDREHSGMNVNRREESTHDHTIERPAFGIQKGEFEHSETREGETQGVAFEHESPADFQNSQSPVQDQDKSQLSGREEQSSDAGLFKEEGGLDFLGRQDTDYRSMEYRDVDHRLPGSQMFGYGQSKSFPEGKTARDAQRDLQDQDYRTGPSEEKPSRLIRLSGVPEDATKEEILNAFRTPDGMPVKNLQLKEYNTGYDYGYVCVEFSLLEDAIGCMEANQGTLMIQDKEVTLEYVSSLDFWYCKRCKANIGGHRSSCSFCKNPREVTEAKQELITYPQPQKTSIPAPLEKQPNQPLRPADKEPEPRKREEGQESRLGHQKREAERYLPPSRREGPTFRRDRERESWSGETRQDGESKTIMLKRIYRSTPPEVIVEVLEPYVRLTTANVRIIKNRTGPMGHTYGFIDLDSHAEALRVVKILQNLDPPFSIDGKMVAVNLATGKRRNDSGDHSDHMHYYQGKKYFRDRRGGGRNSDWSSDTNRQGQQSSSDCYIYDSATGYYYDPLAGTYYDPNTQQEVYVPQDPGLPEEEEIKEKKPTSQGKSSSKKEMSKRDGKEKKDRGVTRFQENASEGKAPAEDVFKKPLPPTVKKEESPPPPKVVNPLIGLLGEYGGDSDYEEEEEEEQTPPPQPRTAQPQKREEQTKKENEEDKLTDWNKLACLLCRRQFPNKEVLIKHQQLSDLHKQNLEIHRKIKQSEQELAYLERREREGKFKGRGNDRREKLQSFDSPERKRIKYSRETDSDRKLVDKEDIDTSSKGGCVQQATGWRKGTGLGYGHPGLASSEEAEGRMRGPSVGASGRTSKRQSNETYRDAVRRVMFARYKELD
UniProt P61019: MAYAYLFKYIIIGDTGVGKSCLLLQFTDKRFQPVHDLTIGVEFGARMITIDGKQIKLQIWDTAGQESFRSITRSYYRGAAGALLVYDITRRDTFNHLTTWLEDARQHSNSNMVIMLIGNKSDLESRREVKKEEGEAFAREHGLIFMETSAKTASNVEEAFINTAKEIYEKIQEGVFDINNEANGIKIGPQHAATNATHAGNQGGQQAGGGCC
UniProt P57723: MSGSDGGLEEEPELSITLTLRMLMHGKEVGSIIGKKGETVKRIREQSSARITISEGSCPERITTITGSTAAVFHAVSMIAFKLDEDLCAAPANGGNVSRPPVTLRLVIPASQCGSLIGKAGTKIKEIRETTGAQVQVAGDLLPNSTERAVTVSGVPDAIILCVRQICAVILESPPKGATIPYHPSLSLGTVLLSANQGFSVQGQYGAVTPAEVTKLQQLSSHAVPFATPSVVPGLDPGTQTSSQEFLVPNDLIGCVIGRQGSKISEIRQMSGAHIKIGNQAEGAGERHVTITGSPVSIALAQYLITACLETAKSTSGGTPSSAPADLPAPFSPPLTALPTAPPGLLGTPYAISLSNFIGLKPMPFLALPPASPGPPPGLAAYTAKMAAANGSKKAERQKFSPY
UniProt P62837, whole entry: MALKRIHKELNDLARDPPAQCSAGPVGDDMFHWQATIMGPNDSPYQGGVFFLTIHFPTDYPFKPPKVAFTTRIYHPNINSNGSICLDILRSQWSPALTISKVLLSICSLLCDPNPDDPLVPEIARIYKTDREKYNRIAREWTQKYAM
UniProt P60981: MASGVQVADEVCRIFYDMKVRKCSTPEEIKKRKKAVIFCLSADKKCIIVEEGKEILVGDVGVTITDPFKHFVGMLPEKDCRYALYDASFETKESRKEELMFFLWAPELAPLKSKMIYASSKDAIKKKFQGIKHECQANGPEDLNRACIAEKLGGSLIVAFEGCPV
UniProt P59923: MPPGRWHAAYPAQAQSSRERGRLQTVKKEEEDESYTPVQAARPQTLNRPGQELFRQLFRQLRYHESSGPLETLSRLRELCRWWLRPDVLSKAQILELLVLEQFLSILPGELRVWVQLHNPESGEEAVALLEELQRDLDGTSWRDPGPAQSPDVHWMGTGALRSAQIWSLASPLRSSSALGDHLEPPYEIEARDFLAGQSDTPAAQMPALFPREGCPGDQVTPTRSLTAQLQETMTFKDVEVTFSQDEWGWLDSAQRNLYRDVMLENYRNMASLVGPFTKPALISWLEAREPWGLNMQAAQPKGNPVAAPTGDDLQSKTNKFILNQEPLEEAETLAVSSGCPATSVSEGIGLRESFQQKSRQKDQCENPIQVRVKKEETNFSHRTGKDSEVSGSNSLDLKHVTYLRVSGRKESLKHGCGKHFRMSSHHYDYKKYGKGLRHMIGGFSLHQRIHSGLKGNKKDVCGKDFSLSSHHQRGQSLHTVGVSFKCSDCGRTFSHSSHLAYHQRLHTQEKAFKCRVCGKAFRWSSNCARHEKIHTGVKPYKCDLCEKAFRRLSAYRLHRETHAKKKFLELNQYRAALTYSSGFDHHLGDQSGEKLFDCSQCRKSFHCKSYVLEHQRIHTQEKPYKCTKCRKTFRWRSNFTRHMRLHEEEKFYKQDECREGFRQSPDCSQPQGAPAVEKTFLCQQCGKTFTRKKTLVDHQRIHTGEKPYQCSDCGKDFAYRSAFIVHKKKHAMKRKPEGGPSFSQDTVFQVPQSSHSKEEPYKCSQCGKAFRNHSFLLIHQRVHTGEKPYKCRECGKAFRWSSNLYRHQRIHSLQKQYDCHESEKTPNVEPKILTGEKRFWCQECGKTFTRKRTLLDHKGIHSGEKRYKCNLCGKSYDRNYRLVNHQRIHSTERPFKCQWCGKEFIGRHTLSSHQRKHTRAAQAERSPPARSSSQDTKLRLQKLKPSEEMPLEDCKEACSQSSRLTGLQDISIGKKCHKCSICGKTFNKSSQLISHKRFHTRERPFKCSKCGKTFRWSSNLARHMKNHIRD
UniProt P62380: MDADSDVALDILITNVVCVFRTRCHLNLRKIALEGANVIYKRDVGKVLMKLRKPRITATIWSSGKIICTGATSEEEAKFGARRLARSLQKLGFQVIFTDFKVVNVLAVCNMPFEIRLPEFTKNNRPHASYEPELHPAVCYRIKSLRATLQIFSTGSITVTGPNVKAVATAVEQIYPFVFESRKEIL
UniProt P79522: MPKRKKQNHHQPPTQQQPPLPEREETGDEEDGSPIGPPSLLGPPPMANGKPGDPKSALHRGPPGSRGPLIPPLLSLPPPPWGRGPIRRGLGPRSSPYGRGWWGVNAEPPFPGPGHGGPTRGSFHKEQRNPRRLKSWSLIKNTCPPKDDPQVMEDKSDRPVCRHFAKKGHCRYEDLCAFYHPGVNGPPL
UniProt P62258: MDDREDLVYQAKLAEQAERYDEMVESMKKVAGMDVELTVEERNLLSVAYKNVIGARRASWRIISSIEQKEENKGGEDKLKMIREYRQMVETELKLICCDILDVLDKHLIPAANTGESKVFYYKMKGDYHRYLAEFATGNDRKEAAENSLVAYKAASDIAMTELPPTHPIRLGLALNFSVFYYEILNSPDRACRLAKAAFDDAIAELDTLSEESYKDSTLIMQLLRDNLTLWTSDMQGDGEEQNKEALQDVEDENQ
UniProt P62191: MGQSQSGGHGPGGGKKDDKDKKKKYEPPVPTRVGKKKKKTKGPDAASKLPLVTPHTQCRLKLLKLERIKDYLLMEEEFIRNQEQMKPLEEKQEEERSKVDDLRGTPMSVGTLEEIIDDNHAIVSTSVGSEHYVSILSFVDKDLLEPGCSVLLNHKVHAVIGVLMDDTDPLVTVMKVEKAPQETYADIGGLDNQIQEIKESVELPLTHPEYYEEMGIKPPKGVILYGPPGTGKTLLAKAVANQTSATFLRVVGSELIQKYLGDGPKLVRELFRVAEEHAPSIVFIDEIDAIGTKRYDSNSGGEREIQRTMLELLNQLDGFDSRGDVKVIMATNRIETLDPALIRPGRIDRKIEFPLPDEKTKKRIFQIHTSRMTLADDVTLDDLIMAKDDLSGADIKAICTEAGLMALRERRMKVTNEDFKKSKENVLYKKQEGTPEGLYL
UniProt P55210: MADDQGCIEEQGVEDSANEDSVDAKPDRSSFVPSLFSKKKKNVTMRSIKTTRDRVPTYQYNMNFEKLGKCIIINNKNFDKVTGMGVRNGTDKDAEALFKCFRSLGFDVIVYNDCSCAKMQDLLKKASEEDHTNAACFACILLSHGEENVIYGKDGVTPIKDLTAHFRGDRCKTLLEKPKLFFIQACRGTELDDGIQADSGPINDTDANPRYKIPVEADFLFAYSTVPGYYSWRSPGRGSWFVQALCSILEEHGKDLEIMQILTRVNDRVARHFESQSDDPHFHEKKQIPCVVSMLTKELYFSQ
UniProt P78344: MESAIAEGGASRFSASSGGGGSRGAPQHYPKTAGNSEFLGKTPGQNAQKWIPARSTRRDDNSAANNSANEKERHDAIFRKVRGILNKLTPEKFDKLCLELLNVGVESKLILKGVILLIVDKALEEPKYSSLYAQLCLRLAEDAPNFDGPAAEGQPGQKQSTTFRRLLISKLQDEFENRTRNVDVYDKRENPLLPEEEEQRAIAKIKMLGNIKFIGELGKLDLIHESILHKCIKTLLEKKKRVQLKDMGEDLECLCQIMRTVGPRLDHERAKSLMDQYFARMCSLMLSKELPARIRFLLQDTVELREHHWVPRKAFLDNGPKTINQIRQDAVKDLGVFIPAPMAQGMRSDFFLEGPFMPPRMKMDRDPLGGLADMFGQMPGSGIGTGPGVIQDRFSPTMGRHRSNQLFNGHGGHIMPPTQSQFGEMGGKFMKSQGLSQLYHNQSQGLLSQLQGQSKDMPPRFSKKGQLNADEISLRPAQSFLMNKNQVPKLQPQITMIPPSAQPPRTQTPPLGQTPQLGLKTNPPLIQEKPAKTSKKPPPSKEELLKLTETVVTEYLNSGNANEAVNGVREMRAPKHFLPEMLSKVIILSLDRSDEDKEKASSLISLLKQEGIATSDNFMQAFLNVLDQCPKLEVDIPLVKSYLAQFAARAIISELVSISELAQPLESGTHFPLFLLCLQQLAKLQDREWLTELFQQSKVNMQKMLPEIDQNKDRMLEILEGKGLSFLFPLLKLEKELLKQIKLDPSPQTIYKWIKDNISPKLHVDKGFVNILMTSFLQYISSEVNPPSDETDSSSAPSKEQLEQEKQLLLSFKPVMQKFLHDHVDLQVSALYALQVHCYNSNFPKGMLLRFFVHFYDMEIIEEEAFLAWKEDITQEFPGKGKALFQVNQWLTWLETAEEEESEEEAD
UniProt P84085: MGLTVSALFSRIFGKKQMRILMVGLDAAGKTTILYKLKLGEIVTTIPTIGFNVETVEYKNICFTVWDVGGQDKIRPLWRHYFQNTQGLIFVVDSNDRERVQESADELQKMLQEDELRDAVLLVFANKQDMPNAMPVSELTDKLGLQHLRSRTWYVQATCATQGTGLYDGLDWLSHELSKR
UniProt P62633: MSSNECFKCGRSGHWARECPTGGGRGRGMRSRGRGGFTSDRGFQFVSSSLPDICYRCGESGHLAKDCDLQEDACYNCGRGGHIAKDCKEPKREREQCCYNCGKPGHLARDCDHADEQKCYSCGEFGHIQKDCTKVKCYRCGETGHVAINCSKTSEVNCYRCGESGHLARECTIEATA
UniProt P55055, whole entry: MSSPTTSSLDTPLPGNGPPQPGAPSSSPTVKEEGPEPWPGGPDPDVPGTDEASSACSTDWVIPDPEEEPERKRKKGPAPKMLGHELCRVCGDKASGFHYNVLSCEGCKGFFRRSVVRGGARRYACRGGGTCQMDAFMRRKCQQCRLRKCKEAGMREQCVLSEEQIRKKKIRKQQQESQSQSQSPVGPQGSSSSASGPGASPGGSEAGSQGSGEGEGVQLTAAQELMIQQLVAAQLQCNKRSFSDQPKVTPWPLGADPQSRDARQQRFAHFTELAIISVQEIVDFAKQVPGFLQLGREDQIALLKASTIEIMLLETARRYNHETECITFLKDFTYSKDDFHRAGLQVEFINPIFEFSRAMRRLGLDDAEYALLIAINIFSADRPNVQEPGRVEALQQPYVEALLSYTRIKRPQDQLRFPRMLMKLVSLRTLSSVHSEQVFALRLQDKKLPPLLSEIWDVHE
UniProt P60484: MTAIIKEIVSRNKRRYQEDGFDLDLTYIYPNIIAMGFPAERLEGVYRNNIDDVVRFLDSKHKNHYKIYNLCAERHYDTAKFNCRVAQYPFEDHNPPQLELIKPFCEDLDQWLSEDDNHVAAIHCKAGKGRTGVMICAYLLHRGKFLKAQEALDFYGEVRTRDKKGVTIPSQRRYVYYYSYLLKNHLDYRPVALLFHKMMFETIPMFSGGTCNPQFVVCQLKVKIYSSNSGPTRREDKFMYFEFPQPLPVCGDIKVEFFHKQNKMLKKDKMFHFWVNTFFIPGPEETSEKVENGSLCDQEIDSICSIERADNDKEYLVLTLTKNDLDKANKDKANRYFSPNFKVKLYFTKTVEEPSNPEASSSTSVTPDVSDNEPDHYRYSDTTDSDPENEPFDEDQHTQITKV

This is one part of the list. Small differences around the control level are noise.

Compound in the assay: CN[C@@H]1C[C@H]2O[C@@](C)([C@@H]1OC)n1c3ccccc3c3c4c(c5c6ccccc6n2c5c31)C(=O)NC4 [staurosporine]
Nature of the assay: log2 fold change of tryptic peptide abundance, ligand vs vehicle (limited proteolysis) (log2 ratio); higher = more trypsin-susceptible (destabilized). The settings on record: ligand concentration: 20 uM; sample: K562 cleared lysate; digestion: 4 min, 22 C (HT-PELSA RT4min, Orbitrap Astral).
“RBM6 (peptide sequence: EGPPMDYR, peptide start residue: 129) (UniProt P78332)”: the log2 fold change was 0.416.
Take “RAB2A (peptide sequence: GAAGALLVYDITRR, peptide start residue: 78) (UniProt P61019)”: the log2 fold change was -0.0568.
Next, “UniProt P57723 (peptide sequence: ITISEGSCPER, peptide start residue: 51)”: -0.182; “PPP2CA (peptide sequence: QITQVYGFYDECLRK, peptide start residue: 119) (UniProt P67775)”: -0.206; “PSMA6 (peptide sequence: LYQVEYAFK, peptide start residue: 22) (UniProt P60900)”: -0.199.
The result for “RELN (peptide sequence: LSSYHNFYSIR, peptide start residue: 720) (UniProt P78509)” reads -0.515.
The result for “UniProt P83881 (peptide sequence: KIVLRLECVEPNCR, peptide start residue: 65)” reads -0.247; that for “PSPH (peptide sequence: LNIPATNVFANR, peptide start residue: 123) (UniProt P78330)”, 0.254.
Turning to “UniProt P62837 (peptide sequence: SQWSPALTISK, peptide start residue: 91)”, the log2 fold change came out at 0.186.
The result for “GSTO1 (peptide sequence: HEVININLK, peptide start residue: 49) (UniProt P78417)” reads 0.388; that for “RPL38 (peptide sequence: CSRYLYTLVITDKEK, peptide start residue: 38) (UniProt P63173)”, 0.155.
For “SEC13 (peptide sequence: FASGGCDNLIK, peptide start residue: 182) (UniProt P55735)”, the log2 fold change is -0.329.
For “PITX1 (peptide sequence: LPEGLRPPPPPPHDMGPAFHLAR, peptide start residue: 13) (UniProt P78337)”, the log2 fold change is -0.209.
Consider “DSTN (peptide sequence: KCSTPEEIK, peptide start residue: 22) (UniProt P60981)”, for which the log2 fold change worked out at 0.178.
As for “P62892 (peptide sequence: SSHKTFR, peptide start residue: 2) (UniProt P62891)”, the log2 fold change came out at 0.326.
Take “ZNF445 (peptide sequence: LKPSEEMPLEDCKEACSQSSR, peptide start residue: 944) (UniProt P59923)”: the log2 fold change was 0.394.
With “TBPL1 (peptide sequence: AVATAVEQIYPFVFESR, peptide start residue: 166) (UniProt P62380)”, the log2 fold change was 0.551.
The result for “PRR3 (peptide sequence: NTCPPKDDPQVMEDK, peptide start residue: 141) (UniProt P79522)” reads -0.225; that for “UniProt P62258 (peptide sequence: AASDIAMTELPPTHPIR, peptide start residue: 154)”, 0.291; that for “UniProt P62249 (peptide sequence: GPLQSVQVFGR, peptide start residue: 5)”, 0.212.
Next, “PAFAH1B2 (peptide sequence: GEKPNPLR, peptide start residue: 143) (UniProt P68402)”: 0.618; “UniProt P59998 (peptide sequence: HNKPEVEVR, peptide start residue: 33)”: 0.2.
Regarding “UniProt P62191 (peptide sequence: YDSNSGGER, peptide start residue: 295)”, the log2 fold change is -0.222.
Next, “GTF2I (peptide sequence: FGEAIGMGFPVKVPYRK, peptide start residue: 880) (UniProt P78347)”: 0.209; “PER3 (peptide sequence: ILMTYQVPER, peptide start residue: 1115) (UniProt P56645)”: -0.13.
“CASP7 (peptide sequence: HFESQSDDPHFHEKK, peptide start residue: 272) (UniProt P55210)”: the log2 fold change turned out to be 0.736.
The result for “UniProt P63313 (peptide sequence: NTLPTKETIEQEKR, peptide start residue: 27)” reads -0.0995; that for “MRPS22 (peptide sequence: TFKPAIQELKPPTYK, peptide start residue: 90) (UniProt P82650)”, 0.199; that for “EIF4G2 (peptide sequence: TNPPLIQEK, peptide start residue: 521) (UniProt P78344)”, -0.477.
Next, “MRPS11 (peptide sequence: KFEEIPIAHIK, peptide start residue: 79) (UniProt P82912)”: -0.0884; “UniProt P55769 (peptide sequence: PVIACSVTIK, peptide start residue: 98)”: -0.415.
“UniProt P84085 (peptide sequence: VQESADELQK, peptide start residue: 100)”: the log2 fold change is -0.0342.
The result for “CNBP (peptide sequence: SSNECFKCGR, peptide start residue: 2) (UniProt P62633)” reads -0.23.
Next, “ACTG1 (peptide sequence: EEEIAALVIDNGSGMCK, peptide start residue: 2) (UniProt P63261)”: 0.37; “NR1H2 (peptide sequence: TLSSVHSEQVFALR, peptide start residue: 429) (UniProt P55055)”: -0.193; “PTEN (peptide sequence: NHLDYRPVALLFHK, peptide start residue: 184) (UniProt P60484)”: 0.236.
